Assay: general procedure: solution-phase peptide synthesis; HOBT/DIPEA; HATU/DIPEA; DIC; DCC
Conditions: late stage modification step; for final HPLC purity: HPLC (220 nm) and LCMS

In the case of “2,3-dibromomethylquinoxaline-6-carboxamidoethoxyethoxypropanoyl-Gly-Lys-PAB-MMAE”, the step yield is reported as 18.18% and the “final HPLC purity” value is reported as “HPLC 96%”.
For “4,5-dibromomethyltriazol-1-ylacetamidoethoxyethoxypropanoyl-Gly-Lys-PAB-MMAE”, the step yield was 65.86% and the “final HPLC purity” value was “HPLC 98%”.

— EP4759822 (dated 2025)
